These results are taken from patent publication US20230242610A1.

The target in test [1] is T1, HA-TMEM16A (mouse) (UniProt Q8BHY3).
T1 sequence (looked up): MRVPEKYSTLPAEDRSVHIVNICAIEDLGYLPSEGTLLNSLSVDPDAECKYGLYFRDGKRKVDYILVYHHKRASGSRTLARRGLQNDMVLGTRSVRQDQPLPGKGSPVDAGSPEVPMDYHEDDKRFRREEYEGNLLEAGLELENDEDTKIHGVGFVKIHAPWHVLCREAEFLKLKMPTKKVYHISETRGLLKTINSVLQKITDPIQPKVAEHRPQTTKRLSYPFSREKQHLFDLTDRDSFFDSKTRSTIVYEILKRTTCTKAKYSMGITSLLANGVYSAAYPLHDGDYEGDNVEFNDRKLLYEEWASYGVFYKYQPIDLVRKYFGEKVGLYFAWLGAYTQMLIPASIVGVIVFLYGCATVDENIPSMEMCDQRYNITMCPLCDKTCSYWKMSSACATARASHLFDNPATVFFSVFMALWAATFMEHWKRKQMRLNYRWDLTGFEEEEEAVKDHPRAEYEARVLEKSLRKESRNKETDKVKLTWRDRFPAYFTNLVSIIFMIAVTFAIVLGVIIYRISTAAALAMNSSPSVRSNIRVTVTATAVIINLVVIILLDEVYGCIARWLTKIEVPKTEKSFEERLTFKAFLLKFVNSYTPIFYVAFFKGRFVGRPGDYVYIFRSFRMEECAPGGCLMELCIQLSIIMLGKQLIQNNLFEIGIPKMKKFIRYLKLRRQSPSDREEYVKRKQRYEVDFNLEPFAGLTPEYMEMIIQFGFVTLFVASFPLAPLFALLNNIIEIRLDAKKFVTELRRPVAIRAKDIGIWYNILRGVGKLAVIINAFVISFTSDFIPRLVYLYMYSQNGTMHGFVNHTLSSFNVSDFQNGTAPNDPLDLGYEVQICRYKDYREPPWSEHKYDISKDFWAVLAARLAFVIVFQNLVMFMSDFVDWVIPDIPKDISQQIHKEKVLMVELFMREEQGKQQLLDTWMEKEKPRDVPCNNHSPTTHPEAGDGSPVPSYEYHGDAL
The experiment in a line: single molecule pulldown (SiMPull), TIRF.

Test [2] deals with T1, HA-TMEM16A (mouse). The test can be described thus: single molecule pulldown (SiMPull), HEK293T lysate on an anti-HA coverslip, TIRF.

Results are given in words; binding and its absence hold for the method and conditions named. For some assays here: In cells and extracts the contact can be indirect. Some results given as binding are weak or reduced against the parent protein; the word gives no strength. Where a sequence is shown, tags or fusion partners need not be part of it.

With KCNE1-GFP (from UniProt P15382 1-129), the binding entry in test [1] and in test [2] was “binds” throughout.
